Measurements reported in PMC5362953.
These are yes or no findings as the source states them, for the method shown. In cells and extracts the contact can be indirect. Some binding calls cover weakened binding; strength is not graded here.

By UniProt entry, the sequences of proteins in these tests, tags left out. Residues count along the entry.
UniProt P11021, residues 19-654: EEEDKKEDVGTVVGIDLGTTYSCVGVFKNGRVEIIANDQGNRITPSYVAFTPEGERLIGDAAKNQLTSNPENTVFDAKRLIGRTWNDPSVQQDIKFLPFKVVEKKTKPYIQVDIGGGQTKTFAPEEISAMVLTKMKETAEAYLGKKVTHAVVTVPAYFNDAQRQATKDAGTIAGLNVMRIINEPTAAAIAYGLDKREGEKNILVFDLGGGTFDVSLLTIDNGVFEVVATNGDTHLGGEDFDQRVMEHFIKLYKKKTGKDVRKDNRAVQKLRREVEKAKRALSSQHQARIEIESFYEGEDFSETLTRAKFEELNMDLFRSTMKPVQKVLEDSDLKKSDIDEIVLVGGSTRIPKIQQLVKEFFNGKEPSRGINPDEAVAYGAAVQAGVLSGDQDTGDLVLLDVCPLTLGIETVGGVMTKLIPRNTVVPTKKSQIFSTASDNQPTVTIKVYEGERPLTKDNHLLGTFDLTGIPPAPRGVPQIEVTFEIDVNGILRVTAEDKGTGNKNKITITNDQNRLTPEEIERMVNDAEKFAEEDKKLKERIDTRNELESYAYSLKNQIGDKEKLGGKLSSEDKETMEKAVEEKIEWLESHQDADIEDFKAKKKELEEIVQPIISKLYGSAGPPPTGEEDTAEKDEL
UniProt Q9Y4K0, residues 26-774: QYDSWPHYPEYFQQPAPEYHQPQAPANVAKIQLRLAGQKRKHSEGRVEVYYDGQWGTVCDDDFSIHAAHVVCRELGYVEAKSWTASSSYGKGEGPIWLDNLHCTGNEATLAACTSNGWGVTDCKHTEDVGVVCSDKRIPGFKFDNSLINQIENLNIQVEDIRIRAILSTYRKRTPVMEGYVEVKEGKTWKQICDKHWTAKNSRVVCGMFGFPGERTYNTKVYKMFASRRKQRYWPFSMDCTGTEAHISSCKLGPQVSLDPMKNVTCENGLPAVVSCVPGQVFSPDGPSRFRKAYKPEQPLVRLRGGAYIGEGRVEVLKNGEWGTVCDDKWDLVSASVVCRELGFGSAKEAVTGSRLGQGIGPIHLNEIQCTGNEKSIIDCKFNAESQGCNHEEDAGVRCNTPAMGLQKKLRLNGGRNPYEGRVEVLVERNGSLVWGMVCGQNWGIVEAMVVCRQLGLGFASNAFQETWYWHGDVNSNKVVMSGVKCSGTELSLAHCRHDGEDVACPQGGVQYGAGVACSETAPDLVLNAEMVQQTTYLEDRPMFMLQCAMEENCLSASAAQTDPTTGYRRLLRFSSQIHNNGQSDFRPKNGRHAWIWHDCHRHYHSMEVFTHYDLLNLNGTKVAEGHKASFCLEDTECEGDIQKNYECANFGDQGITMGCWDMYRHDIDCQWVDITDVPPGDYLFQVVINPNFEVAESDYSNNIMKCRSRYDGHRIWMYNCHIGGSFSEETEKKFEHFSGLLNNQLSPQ

Tests used:
[1] = target: HSPA5 (endogenous in Hs578T cells) (human (endogenous in Hs578T)) (UniProt P11021); test: co-IP; total membranes of Hs578T cells solubilized in TXNE buffer (10 mM Tris-HCl pH 7.5, 150 mM NaCl, 2 mM EDTA, 1% Triton X-100); immunoprecipitated with anti-HSPA5 on Dynabeads Protein G 3 h at 4 °C; immunoblot
[2] = target: Flag-tagged version of LOXL2 (lysyl oxidase-like 2), from pcDNA3-hLOXL2-Flag (human) (UniProt Q9Y4K0); test: co-IP; HEK293T cells ectopically expressing LOXL2; performed as described in ref. 14

binding [1]	binding [2]	Substance
binds		LOXL2 (endogenous in Hs578T cells) (from UniProt Q9Y4K0 26-774) (enzyme)
	binds	HSPA5 (endogenous in HEK293T cells) (from UniProt P11021 19-654)
